Measurements reported in PubChem BioAssay AID1835 (Johns Hopkins Ion Channel Center, 2009).
The list shows a part of the results, in another mix than the full data. Activity calls are given as the source filed them.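 The calls were made as follows: active = median signal gain over dofetilide-blocked control wells reaching their mean plus 3 SD, so readout 1 at least 0; inactive = the rest.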

The chains behind the UniProt entries cited, without tags or fusion partners. Where a name states a change or a piece, a line headed by the entry shows the natural chain unless it says otherwise.
UniProt Q12809: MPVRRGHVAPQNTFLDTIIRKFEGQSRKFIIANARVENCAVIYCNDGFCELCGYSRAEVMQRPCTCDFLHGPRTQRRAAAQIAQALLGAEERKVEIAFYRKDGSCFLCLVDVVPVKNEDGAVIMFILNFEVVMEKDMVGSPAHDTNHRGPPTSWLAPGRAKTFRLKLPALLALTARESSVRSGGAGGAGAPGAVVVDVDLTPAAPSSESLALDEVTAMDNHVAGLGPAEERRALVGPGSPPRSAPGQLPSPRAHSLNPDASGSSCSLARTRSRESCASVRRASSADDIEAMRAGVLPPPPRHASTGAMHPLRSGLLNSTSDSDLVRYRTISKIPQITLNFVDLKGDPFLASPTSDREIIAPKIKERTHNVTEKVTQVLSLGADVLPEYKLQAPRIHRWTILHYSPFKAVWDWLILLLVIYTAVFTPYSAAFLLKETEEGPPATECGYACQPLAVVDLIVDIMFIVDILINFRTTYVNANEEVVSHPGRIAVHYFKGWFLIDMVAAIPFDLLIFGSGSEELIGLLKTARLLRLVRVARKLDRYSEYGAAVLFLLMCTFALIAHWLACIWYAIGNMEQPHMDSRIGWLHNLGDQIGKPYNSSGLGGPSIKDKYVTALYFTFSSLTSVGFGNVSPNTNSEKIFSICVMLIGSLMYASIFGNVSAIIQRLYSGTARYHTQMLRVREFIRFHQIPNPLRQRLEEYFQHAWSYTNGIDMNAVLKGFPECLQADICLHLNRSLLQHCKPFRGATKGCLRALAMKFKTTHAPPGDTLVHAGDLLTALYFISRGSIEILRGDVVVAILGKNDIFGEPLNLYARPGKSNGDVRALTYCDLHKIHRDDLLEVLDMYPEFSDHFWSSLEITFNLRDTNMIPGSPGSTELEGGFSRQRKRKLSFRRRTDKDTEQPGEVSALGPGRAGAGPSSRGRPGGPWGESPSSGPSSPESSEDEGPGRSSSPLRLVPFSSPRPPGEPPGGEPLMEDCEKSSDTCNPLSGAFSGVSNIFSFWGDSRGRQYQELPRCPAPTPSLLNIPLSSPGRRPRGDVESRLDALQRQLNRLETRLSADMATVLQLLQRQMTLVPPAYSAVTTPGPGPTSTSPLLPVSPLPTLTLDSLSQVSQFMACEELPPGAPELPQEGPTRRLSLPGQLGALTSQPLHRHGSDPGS

Molecular target: Voltage-gated inwardly rectifying potassium channel KCNH2 (Homo sapiens) (UniProt Q12809)
Test: modulators restoring hERG flux under dofetilide – cell-based, thallium flux, duplicate retest, dofetilide IC70, confirmation (AID 1835)
Conditions: hERG cell line, FluxOR thallium flux, dofetilide-blocked; at 10 µM; hits give high values

| Structure (SMILES) | activity increase over dofetilide control, less the hit threshold |
| --- | --- |
| CN1C(=O)C(N=Nc2ccccc2C(=O)O)N(C)C1=S (stereo unspecified) | active: 1% |
